Record: PubChem BioAssay AID1224826 (NIAID, 2016)
Assay: 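Knock-downs that raise or lower Tnf reporter signal after endotoxin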 (primary screen). System: RAW264.7 G9 macrophages from mouse bearing reporters for p65 (GFP) and the Tnf promoter (mCherry). Reagents: siRNA pool against mouse genes, 100 nM. Timing: 16 h of LPS stimulation, after 2 days of siRNA transfection. Conditions: bacterial lipopolysaccharide (Salmonella minnesota R595), 10 ng/ml. Detection: 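Nuclear mCherry signal of the Tnf promoter reporter measured by imaging after background removal, scaled to each plate median and turned into robust z-scores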. Reading the numbers: Tnf reporter robust z-score: higher = stronger Tnf promoter reporter signal after LPS. Hit rule: 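a well counts as active at a score of -1.3 or below (Tlr4 knock-down control median) or above 3 (raised signal); controls and wells holding fewer than 50 cells are excluded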. Calls: active = Tnf reporter clearly lowered or raised; inactive = no clear change in Tnf reporter.
This is a random part of about 17,000 deposited reagents. About 1,110 of all reagents (6.6%) were called active. 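Active means lowered or raised reporter signal; replicate intensities are raw and not normalised per plate.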 Not all columns of the deposit are shown. Reagent sequences are not shown.

Serac1 (serine active site containing 1) gave Tnf reporter robust z-score 0.2; fewer than 50 cells in well enough cells in well; inactive.
Knock-down of Bpnt1 (3'(2'), 5'-bisphosphate nucleotidase 1) resulted in: Tnf reporter robust z-score -0.57; fewer than 50 cells in well enough cells in well; inactive.
Pigl (phosphatidylinositol glycan anchor biosynthesis, class L) gave Tnf reporter robust z-score 2.79; fewer than 50 cells in well enough cells in well; inactive.
Ctif (CBP80/20-dependent translation initiation factor) scored Tnf reporter robust z-score -1.83; fewer than 50 cells in well enough cells in well; active.
Uba5 (ubiquitin-like modifier activating enzyme 5) scored Tnf reporter robust z-score -0.95; fewer than 50 cells in well enough cells in well; inactive.
Silencing of Csf2 (colony stimulating factor 2 (granulocyte-macrophage)) gave: Tnf reporter robust z-score -0.42; fewer than 50 cells in well enough cells in well; inactive.
After knock-down of Aif1l (allograft inflammatory factor 1-like), the record shows Tnf reporter robust z-score -0.74; fewer than 50 cells in well enough cells in well; inactive.
With knock-down of Rhbdf1 (rhomboid 5 homolog 1), the record shows Tnf reporter robust z-score 0.1; fewer than 50 cells in well enough cells in well; inactive.
After knock-down of Foxb1 (forkhead box B1) the results were Tnf reporter robust z-score 0.09; fewer than 50 cells in well enough cells in well; inactive.
Depletion of Rangrf (RAN guanine nucleotide release factor) came out at: Tnf reporter robust z-score 1.44; fewer than 50 cells in well enough cells in well; inactive.
Depletion of Cul5 (cullin 5) came out at: Tnf reporter robust z-score 1.24; fewer than 50 cells in well enough cells in well; inactive.
Against Lasp1 (LIM and SH3 protein 1), the values are Tnf reporter robust z-score -1.23; fewer than 50 cells in well enough cells in well; inactive.
With knock-down of Opa1 (OPA1, mitochondrial dynamin like GTPase) the results were Tnf reporter robust z-score 0.23; fewer than 50 cells in well enough cells in well; inactive.
Sgcb (sarcoglycan, beta (dystrophin-associated glycoprotein)) showed Tnf reporter robust z-score 0.25; fewer than 50 cells in well enough cells in well; inactive.

Records listed so far whose gene name starts with S or s (2):
Serac1 (serine active site containing 1) → Tnf reporter robust z-score: 0.2; fewer than 50 cells in well: enough cells in well; Call: inactive
Sgcb (sarcoglycan, beta (dystrophin-associated glycoprotein)) → Tnf reporter robust z-score: 0.25; fewer than 50 cells in well: enough cells in well; Call: inactive

The listing continues:
Against Ckb (creatine kinase, brain), the entry reads Tnf reporter robust z-score 0.06; fewer than 50 cells in well enough cells in well; inactive.
Rtl3 (retrotransposon Gag like 3) scored fewer than 50 cells in well fewer than 50 cells per well; well left out of calls; inactive.
Adamtsl4 (ADAMTS-like 4) gave Tnf reporter robust z-score -0.87; fewer than 50 cells in well enough cells in well; inactive.
With knock-down of Map2k3 (mitogen-activated protein kinase kinase 3) the results were Tnf reporter robust z-score -1.36; fewer than 50 cells in well enough cells in well; active.
After knock-down of Pgam1 (phosphoglycerate mutase 1), the record shows Tnf reporter robust z-score 0.73; fewer than 50 cells in well enough cells in well; inactive.
Knock-down of Edf1 (endothelial differentiation-related factor 1) came out at: Tnf reporter robust z-score 0.74; fewer than 50 cells in well enough cells in well; inactive.
Silencing of F630111L10Rik (RIKEN cDNA F630111L10 gene) came out at: Tnf reporter robust z-score 0.21; fewer than 50 cells in well enough cells in well; inactive.
